Laboratory results published in the supplement of paper PMC8728848.
The list shows a part of the results.

Experiments:
Experiment in all cases: glycan array binding signal (z-score within array); higher = stronger binding
Conditions in all cases: glycan notation: IUPAC condensed, linker removed
Man(b1-4)GlcNAc = molecular target: Man(b1-4)GlcNAc
Summary of the method: (§1)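 The binding signal is a Z-score computed within each array and averaged over linkers. Arrays of the same protein sequence at different concentrations or buffers were also averaged together. Data originate from 3228 arrays in the Consortium for Functional Glycomics database, kept only where the protein sequence was available.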

Neu5Ac(a2-3)Gal = molecular target: Neu5Ac(a2-3)Gal
Summary of the method: as §1

[1] = molecular target: Neu5Ac(a2-3)Gal(b1-3)GalNAc
Summary of the method: as §1

[2] = molecular target: Neu5Ac(a2-3)Gal(b1-3)GalNAc(b1-3)Gal(a1-4)Gal(b1-4)Glc
Summary of the method: as §1

[3] = molecular target: Neu5Ac(a2-3)Gal(b1-3)GalNAc(b1-3)Gal(b1-4)GlcNAc
Summary of the method: as §1

[4] = molecular target: Neu5Ac(a2-3)Gal(b1-3)GalNAc(b1-4)[Neu5Ac(a2-3)]Gal(b1-4)Glc
Summary of the method: as §1

[5] = molecular target: Neu5Ac(a2-3)Gal(b1-3)GalNAc6S
Summary of the method: as §1

[6] = molecular target: Neu5Ac(a2-3)Gal(b1-3)GlcNAc
Summary of the method: as §1

[7] = molecular target: Neu5Ac(a2-3)Gal(b1-3)GlcNAc(b1-3)Gal(b1-3)GlcNAc
Summary of the method: as §1

[8] = molecular target: Neu5Ac(a2-3)Gal(b1-3)GlcNAc6S
Summary of the method: as §1

[9] = molecular target: Neu5Ac(a2-3)Gal(b1-3)[Fuc(a1-4)]GlcNAc
Summary of the method: as §1

[10] = molecular target: Neu5Ac(a2-3)Gal(b1-3)[Fuc(a1-4)]GlcNAc(b1-3)Gal(b1-3)[Fuc(a1-4)]GlcNAc
Summary of the method: as §1

[11] = molecular target: Neu5Ac(a2-3)Gal(b1-3)[Fuc(a1-4)]GlcNAc(b1-3)Gal(b1-4)[Fuc(a1-3)]GlcNAc
Summary of the method: as §1

[12] = molecular target: Neu5Ac(a2-3)Gal(b1-3)[Neu5Ac(a2-3)Gal(b1-4)]GlcNAc
Summary of the method: as §1

[13] = molecular target: Neu5Ac(a2-3)Gal(b1-3)[Neu5Ac(a2-6)]GalNAc
Summary of the method: as §1

Neu5Ac(a2-3)Gal(b1-4)Glc = molecular target: Neu5Ac(a2-3)Gal(b1-4)Glc
Summary of the method: as §1

[14] = molecular target: Neu5Ac(a2-3)Gal(b1-4)GlcNAc
Summary of the method: as §1

[15] = molecular target: Neu5Ac(a2-3)Gal(b1-4)GlcNAc(b1-2)Man(a1-3)[GlcNAc(b1-2)Man(b1-4)GlcNAc(b1-2)Man(a1-6)]Man(b1-4)GlcNAc(b1-4)GlcNAc
Summary of the method: as §1

[16] = molecular target: Neu5Ac(a2-3)Gal(b1-4)GlcNAc(b1-2)Man(a1-3)[Neu5Ac(a2-6)Gal(b1-4)GlcNAc(b1-2)Man(a1-6)]Man(b1-4)GlcNAc(b1-4)GlcNAc
Summary of the method: as §1

[17] = molecular target: Neu5Ac(a2-3)Gal(b1-4)GlcNAc(b1-3)Gal(b1-3)GlcNAc
Summary of the method: as §1

[18] = molecular target: Neu5Ac(a2-3)Gal(b1-4)GlcNAc(b1-3)Gal(b1-4)GlcNAc
Summary of the method: as §1

[19] = molecular target: Neu5Ac(a2-3)Gal(b1-4)GlcNAc(b1-3)Gal(b1-4)GlcNAc(b1-3)Gal(b1-4)GlcNAc
Summary of the method: as §1

[20] = molecular target: Neu5Ac(a2-3)Gal(b1-4)GlcNAc(b1-3)Gal(b1-4)[Fuc(a1-3)]GlcNAc
Summary of the method: as §1

[21] = molecular target: Neu5Ac(a2-3)Gal(b1-4)GlcNAc(b1-3)GalNAc
Summary of the method: as §1

[22] = molecular target: Neu5Ac(a2-3)Gal(b1-4)GlcNAc(b1-6)[Gal(b1-3)]GalNAc
Summary of the method: as §1

[23] = molecular target: Neu5Ac(a2-3)Gal(b1-4)GlcNAc(b1-6)[Neu5Ac(a2-3)Gal(b1-3)]GalNAc
Summary of the method: as §1

[24] = molecular target: Neu5Ac(a2-3)Gal(b1-4)GlcNAc6S
Summary of the method: as §1

[25] = molecular target: Neu5Ac(a2-3)Gal(b1-4)[Fuc(a1-3)]GlcNAc
Summary of the method: as §1

[26] = molecular target: Neu5Ac(a2-3)Gal(b1-4)[Fuc(a1-3)]GlcNAc(b1-3)Gal
Summary of the method: as §1

[27] = molecular target: Neu5Ac(a2-3)Gal(b1-4)[Fuc(a1-3)]GlcNAc(b1-3)Gal(b1-4)GlcNAc
Summary of the method: as §1

[28] = molecular target: Neu5Ac(a2-3)Gal(b1-4)[Fuc(a1-3)]GlcNAc(b1-3)Gal(b1-4)[Fuc(a1-3)]GlcNAc(b1-3)Gal(b1-4)[Fuc(a1-3)]GlcNAc
Summary of the method: as §1

[29] = molecular target: Neu5Ac(a2-3)Gal(b1-4)[Fuc(a1-3)]GlcNAc(b1-6)[Gal(b1-3)]GalNAc
Summary of the method: as §1

[30] = molecular target: Neu5Ac(a2-3)Gal(b1-4)[Fuc(a1-3)]GlcNAc(b1-6)[Neu5Ac(a2-3)Gal(b1-3)]GalNAc
Summary of the method: as §1

[31] = molecular target: Neu5Ac(a2-3)Gal(b1-4)[Fuc(a1-3)]GlcNAc6S
Summary of the method: as §1

[32] = molecular target: Neu5Ac(a2-3)Gal6S(b1-4)GlcNAc
Summary of the method: as §1

[33] = molecular target: Neu5Ac(a2-3)Gal6S(b1-4)[Fuc(a1-3)]GlcNAc
Summary of the method: as §1

Neu5Ac(a2-3)GalNAc = molecular target: Neu5Ac(a2-3)GalNAc
Summary of the method: as §1

[34] = molecular target: Neu5Ac(a2-3)GalNAc(b1-4)GlcNAc
Summary of the method: as §1

[35] = molecular target: Neu5Ac(a2-3)[GalNAc(b1-4)]Gal(b1-4)Glc
Summary of the method: as §1

[36] = molecular target: Neu5Ac(a2-3)[GalNAc(b1-4)]Gal(b1-4)GlcNAc
Summary of the method: as §1

[37] = molecular target: Neu5Ac(a2-3)[Neu5Ac(a2-6)]GalNAc
Summary of the method: as §1

Neu5Ac(a2-6)Gal = molecular target: Neu5Ac(a2-6)Gal
Summary of the method: as §1

B1: 4F2hc (Homo sapiens), P08195 (protein)
chain: WWHTGALYRIGDLQAFQGHGAGNLAGLKGRLDYLSSLKVKGLVLGPIHKNQKDDVAQTDLLQIDPNFGSKEDFDSLLQSAKKKSIRVILDLTPNYRGENSWFSTQVDTVATKVKDALEFWLQAGVDGFQVRDIENLKDASSFLAEWQNITKGFSEDRLLIAGTNSSDLQQILSLLESNKDLLLTSSYLSDSGSTGEHTKSLVTQYLNATGNRWCSWSLSQARLLTSFLPAQLLRLYQLMLFTLPGTPVFSYGDEIGLDAAALPGQPMEAPVMLWDESSFPDIPGAVSANMTVKGQSEDPGSLLSLFRRLSDQRSKERSLLHGDFHAFSAGPGLFSYIRHWDQNERFLVVLNFGDVGLSAGLQASDLPASASLPAKADLLLSTQPGREEGSPLELERLKLEPHEGLLLRFPYAA
glycan array binding signal (z-score) (Man(b1-4)GlcNAc): -0.4 | glycan array binding signal (z-score) (Neu5Ac(a2-3)Gal): -0.507 | glycan array binding signal (z-score) [1]: -1.1 | glycan array binding signal (z-score) [2]: -0.604 | glycan array binding signal (z-score) [3]: -0.583 | glycan array binding signal (z-score) [4]: -0.592 | glycan array binding signal (z-score) [5]: -0.717 | glycan array binding signal (z-score) [6]: -0.715 | glycan array binding signal (z-score) [7]: -0.667 | glycan array binding signal (z-score) [8]: 0.859 | glycan array binding signal (z-score) [9]: 1.08 | glycan array binding signal (z-score) [10]: 0.719 | glycan array binding signal (z-score) [11]: 1.55 | glycan array binding signal (z-score) [12]: -0.756 | glycan array binding signal (z-score) [13]: 0.401 | glycan array binding signal (z-score) (Neu5Ac(a2-3)Gal(b1-4)Glc): 1.76 | glycan array binding signal (z-score) [14]: -0.087 | glycan array binding signal (z-score) [15]: -0.837 | glycan array binding signal (z-score) [16]: -0.878 | glycan array binding signal (z-score) [17]: -0.714 | glycan array binding signal (z-score) [18]: -0.564 | glycan array binding signal (z-score) [19]: 2.08 | glycan array binding signal (z-score) [20]: -0.265 | glycan array binding signal (z-score) [21]: -0.993 | glycan array binding signal (z-score) [22]: -1.08 | glycan array binding signal (z-score) [23]: -0.991 | glycan array binding signal (z-score) [24]: 2.27 | glycan array binding signal (z-score) [25]: -0.451 | glycan array binding signal (z-score) [26]: -0.785 | glycan array binding signal (z-score) [27]: 0.493 | glycan array binding signal (z-score) [28]: -0.062 | glycan array binding signal (z-score) [29]: -0.685 | glycan array binding signal (z-score) [30]: 3.35 | glycan array binding signal (z-score) [31]: 0.867 | glycan array binding signal (z-score) [32]: -0.272 | glycan array binding signal (z-score) [33]: 0.518 | glycan array binding signal (z-score) (Neu5Ac(a2-3)GalNAc): -1.16 | glycan array binding signal (z-score) [34]: 0.413 | glycan array binding signal (z-score) [35]: -0.955 | glycan array binding signal (z-score) [36]: -0.5 | glycan array binding signal (z-score) [37]: -1.05 | glycan array binding signal (z-score) (Neu5Ac(a2-6)Gal): -0.336
